Measured values published in PMC10929199.
Results are given in words; binding and its absence hold for the method and conditions named. Binding seen in cells or lysates may run through a third protein. Some results given as binding are weak or reduced against the parent protein; the word gives no strength.

Amino acid sequences for entries named in this document (tags omitted).
UniProt O35253: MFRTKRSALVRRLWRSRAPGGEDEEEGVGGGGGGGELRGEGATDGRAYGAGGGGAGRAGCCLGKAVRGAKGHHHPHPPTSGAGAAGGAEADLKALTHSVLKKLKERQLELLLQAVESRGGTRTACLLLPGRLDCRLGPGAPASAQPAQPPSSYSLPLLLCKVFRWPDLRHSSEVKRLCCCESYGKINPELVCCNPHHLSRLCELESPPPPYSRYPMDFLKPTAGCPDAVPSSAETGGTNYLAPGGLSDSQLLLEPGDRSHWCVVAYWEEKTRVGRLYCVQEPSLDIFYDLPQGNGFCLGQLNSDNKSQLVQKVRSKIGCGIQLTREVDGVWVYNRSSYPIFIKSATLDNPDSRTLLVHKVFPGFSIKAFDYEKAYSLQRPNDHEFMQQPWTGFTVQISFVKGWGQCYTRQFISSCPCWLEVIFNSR

Key:
[1] = biological target: T1, Carbonic anhydrase 3 (mouse (endogenous in adult mouse cardiac fibroblasts and mouse heart tissue)) (UniProt P16015); assay: co-IP; lysates of mouse heart tissue from the infarct (sham or MI; WT and Car3-deficient), 800 μg, IP with anti-CAR3 antibody overnight at 4°C and protein G agarose, blot with anti-Smad7; IgG as negative control; lysis buffer 20 mM Tris pH 7.5, 150 mM NaCl, 1 mM EDTA, 1% Nonidet P-40, 5% glycerol
T1 sequence: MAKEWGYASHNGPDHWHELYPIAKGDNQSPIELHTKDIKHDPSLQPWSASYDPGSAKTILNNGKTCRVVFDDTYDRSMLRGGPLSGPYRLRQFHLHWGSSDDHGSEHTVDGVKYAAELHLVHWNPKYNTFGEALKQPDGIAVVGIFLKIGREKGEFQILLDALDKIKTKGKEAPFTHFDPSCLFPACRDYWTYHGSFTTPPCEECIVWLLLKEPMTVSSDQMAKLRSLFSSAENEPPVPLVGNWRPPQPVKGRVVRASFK

[2] = biological target: T1, Carbonic anhydrase 3 (mouse (endogenous in adult mouse cardiac fibroblasts and mouse heart tissue)); assay: co-IP; lysates of cultured adult mouse cardiac fibroblasts (with or without TGF-β1; WT and Car3-deficient), 800 μg, IP with anti-CAR3 antibody overnight at 4°C and protein G agarose, blot with anti-Smad7; IgG as negative control; lysis buffer 20 mM Tris pH 7.5, 150 mM NaCl, 1 mM EDTA, 1% Nonidet P-40, 5% glycerol

binding [1]: binds
binding [2]: binds
Substance: Smad7 (from UniProt O35253 1-426)
